Experimental data as given in US20250034250A1.

Molecular target: artificial CD33 molecule that contains only the V-set domain (CD33^ΔE3-4)
Test: binding to cells displaying CD33^ΔE3-4

B1: anti-CD33 antibody 1H7 (antibody, V domains shown)
VH: QVQLQQSGAELVKPGASVKISCKASGYAFSNYWMNWVKQRPGKGLEWIGQINPGDGDTNYNGKFKGKATLTADKSSSTAYMQLSSLTSEDSAVYFCAREDRDYFDYWGQGTTLTVSS
VL: DIQMTQTTSSLSASLGDRVTISCRASQDINYYLNWYQQKPDGTVKLLIYYSSRLHSGVPSRFSGSGSGTDFSLTISNLEQEDIATYFCQQDDALPYTFGGGTKLEIKR
In the case of B1, the binding is reported as “no binding”.

Results are given in words; binding and its absence hold for the method and conditions named.
